Measurements published in PubChem BioAssay AID1487 (National Center for Advancing Translational Sciences (NCATS), 2009).
“And” between values parts separate entries of the source, which are not always exact repeats. Equal values may be shown once. Some of the results follow. Shown are side measurements of this screen, not its main read-out; they come without a call. The list favours compounds with an active or inconclusive main result. Potencies come from curve fits of mixed quality, noted in brackets.

Assay: qHTS Assay for Modulators of Lamin A Splicing
Conditions: HeLa LMNA splicing GFP/RFP minigene ratio, 48 h
Outline: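 S3 HeLa cells stably expressing lamin A-EGFP splicing minigene plus DsRed2, 600 cells/well, 48 h compound exposure at 37C. Laser-scanning cytometry; analysed as GFP (500-530 nm)/RFP (575-640 nm) total intensity ratio; 0.5% DMSO vehicle.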

[1] = measured here: RFP viability control channel
[2] = measured here: GFP splicing reporter channel

| Structure (SMILES) | AC50 [1] | AC50 [2] |
| --- | --- | --- |
| O=C(CN1CCN(Cc2ccccc2)CC1)N/N=C/c1c[nH]c2ccccc12 | 35.5 µM [rising, single point] |  |
| Cc1nn(-c2ccccc2)c2[nH]c(=O)c(CNCc3ccc4c(c3)OCO4)cc12 | 7.08 µM [rising, partial curve] |  |
| CCOCCSc1c(C)cnc2c1c(=O)n(C)c(=O)n2C | 0.0708 µM [rising, full curve, poor fit] |  |
| Cc1oc(-c2cc(F)ccc2F)nc1CN1CCN(c2ncnc3ccccc23)CC1 | 1.41 µM [rising, partial curve] | 1.78 µM [rising, partial curve] |
| CC(=O)N1c2ccc(S(=O)(=O)N3CCCCCC3)cc2CC1C(=O)NCc1ccc(Cl)cc1 (centres undefined) | 10 µM [falling, partial curve] | 35.5 µM [falling, single point] |
| C/C(=N\N=C(N)N)c1ccc(Cl)cc1 | 10 µM [rising, partial curve, poor fit] | 4.47 µM [rising, partial curve, poor fit] |
| CC(=O)Nc1sc2c(c1C(c1ccc(Cl)cc1)N1CCOCC1)CCCC2 (centres undefined) |  | 25.1 µM [falling, single point] |
| CSC1=C(C#N)C(c2ccc(Cl)cc2)C2=C(CC(C)(C)CC2=O)N1 (centres undefined) | 2.82 µM [rising, partial curve] | 5.62 µM [rising, single point] |
| Cc1ccc2cc(CN(Cc3ccco3)C(=O)NC3CCCCC3)c(=O)[nH]c2c1C | 35.5 µM [rising, single point] |  |
| COc1ccc(-c2cc(C(=O)NCc3ccc(F)cc3)c3c(-c4ccc(F)cc4)[nH]nc3n2)cc1OC | 17.8 µM [falling, partial curve, poor fit] | 12.6 µM [falling, partial curve] |
| COc1ccccc1C1CC(c2ccc(Br)cc2)=NN1C(=O)c1cccnc1 (centres undefined) | 0.282 µM [rising, full curve, poor fit] |  |
| CNC1(C)C2CCC(C2)C1(C)C (centres undefined) | 0.00501 µM [falling, full curve, poor fit] | 5.62 µM [rising, single point] and 2.51 µM [rising, single point] |
| CCOC(=O)c1[nH]c(C)c(CCC(=O)NCc2ccccc2Cl)c1C | 17.8 µM [rising, partial curve] | 0.501 µM [rising, single point] |
| CCC(C)Nc1ncnc2c1cnn2Cc1ccc(Cl)cc1 (centres undefined) | 35.5 µM [rising, single point] |  |
| Cc1oc(-c2ccccc2Cl)nc1CN1CCCN(C(=O)c2ccco2)CC1 | 11.2 µM [falling, partial curve, poor fit] |  |
| CCOc1ccc(C(=O)NC2CC3CCCC(C2)N3CC(C)C)cc1 (centres undefined) |  | 2.51 µM [falling, partial curve, poor fit] |
| Cc1nc2cncnc2n(Cc2ccccc2Cl)c1=O |  | 25.1 µM [falling, partial curve, poor fit] |
| Cc1ccc(C)c(NC(=O)Cn2cc(C(=O)c3ccc(Cl)cc3)c(=O)c3ccc(C)nc32)c1 | 0.0178 µM [falling, full curve] |  |
| COc1ccc(N2C(=O)C3NN=C(C(=O)OCc4ccccc4)C3C2=O)cc1 (centres undefined) | 5.62 µM [falling, full curve] |  |

| Structure (SMILES) | AC50 [1] | AC50 [2] |
| --- | --- | --- |
| Cc1ccc(Sc2sc(=O)n(C)c2S(=O)(=O)c2ccc(C)cc2)cc1 |  | 31.6 µM [rising, single point] |
| O=C(Cc1cccc2ccccc12)N/N=C/C=C/c1cccc([N+](=O)[O-])c1 | 22.4 µM [rising, single point] |  |
| OCCn1c(-c2ccccc2)csc1=Nc1ccccc1 | 25.1 µM [rising, partial curve] | 12.6 µM [rising, partial curve] |
| COc1ccc(OC)c(NC(=O)Cn2cc(C=O)c3ccccc32)c1 | 0.0355 µM [falling, full curve, poor fit] | 0.178 µM [falling, full curve, poor fit] |
| CC/C(O)=C1\C(=O)CC(C)(C)CC1=Nc1ccccc1C | 17.8 µM [rising, partial curve, poor fit] | 12.6 µM [rising, partial curve, poor fit] |
| O=C(Nc1ccc2c(c1)OCCO2)c1ccc(S(=O)(=O)N2CCCCC2)cc1 | 35.5 µM [rising, single point] |  |
| Cc1ccc(C(=O)COC(=O)c2ccccc2NC(=O)c2ccccc2)cc1[N+](=O)[O-] | 17.8 µM [rising, partial curve] |  |
| O=c1[nH]c(=O)n([C@@H]2C[C@H](O)[C@H](CO)O2)cc1C(F)(F)F |  | 0.02 µM [falling, full curve, poor fit] |
| S=c1[nH]nc(C2CCCCC2)n1Cc1ccccc1 | 0.316 µM [falling, full curve, poor fit] |  |
| COCCn1c(=O)c(-c2cn(C)c3ccccc23)nc2cnc(OCc3ccccc3)nc21 | 12.6 µM [falling, single point] | 20 µM [falling, partial curve] |
| O=C(CCN1CCN(c2ccc(Cl)cc2)CC1)Nc1nccs1 | 10 µM [rising, partial curve] |  |
| Cn1c(N)c(C(=O)COc2ccc(Cl)cc2Cl)c(=O)n(C)c1=O | 11.2 µM [rising, partial curve] |  |
| Cc1cc(NC(=O)CCC(=O)N(c2ccccc2)C(C(=O)NC2CCCC2)c2ccccc2)no1 (centres undefined) |  | 11.2 µM [falling, partial curve, poor fit] |
| Cc1nc2ccc(S(=O)(=O)NCC(=O)N3CCN(c4ccccc4)CC3)cc2s1 | 14.1 µM [rising, partial curve] | 14.1 µM [rising, partial curve, poor fit] |
| c1ccc(-n2nnnc2NCCc2c[nH]c3ccccc23)cc1 | 31.6 µM [rising, single point] |  |
| O=C(CCSc1nc(-c2ccco2)cc(C(F)(F)F)n1)N1CCN(c2ccccn2)CC1 | 11.2 µM [rising, single point] |  |
| O=C(OCc1cc(=O)n2nc(C3CC3)sc2n1)c1ccc(F)cc1 |  | 8.91 µM [falling, partial curve, poor fit] |
| N#Cc1ccccc1-c1ccc2ncnc(NC3CC3)c2c1 |  | 15.8 µM [falling, single point] |
| COC(=O)c1ccc(NC(=O)c2cc(S(=O)(=O)N3CCc4ccccc43)cn2C)cc1 | 14.1 µM [rising, partial curve] | 10 µM [rising, partial curve, poor fit] |

Part of the list above, tab-delimited:
Structure (SMILES)	AC50 [1]	AC50 [2]
CC/C(O)=C1\C(=O)CC(C)(C)CC1=Nc1ccccc1C	17.8 µM [rising, partial curve, poor fit]	12.6 µM [rising, partial curve, poor fit]
Cc1ccc(C(=O)COC(=O)c2ccccc2NC(=O)c2ccccc2)cc1[N+](=O)[O-]	17.8 µM [rising, partial curve]	

The listing continues.

| Structure (SMILES) | AC50 [1] | AC50 [2] |
| --- | --- | --- |
| N#Cc1ccccc1Cn1cc(C#N)c2ccccc21 |  | 35.5 µM [falling, single point] |
| CCCCc1nnc(SCc2cc(=O)c3cc(C(=O)OCC)ccc3[nH]2)n1C |  | 0.0282 µM [rising, full curve, poor fit] |
| COc1ccc(N/C(N)=N/c2nc(C)cc(C)n2)c(OC)c1 | 6.31 µM [falling, single point] |  |
| O=C(NCc1cccnc1)C1CCN(Cc2cc3ccccc3n2Cc2cccc(Cl)c2)CC1 | 12.6 µM [rising, single point] |  |
| Cc1cc(=O)[nH]c(SCC(=O)/C=C2\N(C)c3ccccc3C2(C)C)n1 | 22.4 µM [rising, single point] | 11.2 µM [rising, single point] |
| Cc1cccc(OCCCCCn2ccnc2)c1C | 17.8 µM [rising, single point] |  |
| O=C(/C=C/c1ccccc1)NC(NC(=S)Nc1ccc(Cl)cc1)C(Cl)(Cl)Cl (centres undefined) | 35.5 µM [falling, single point] | 20 µM [falling, single point] |
| CN(C)/C=C(\c1cnc(Cl)s1)S(=O)(=O)c1ccccc1 | 5.62 µM [rising, single point] |  |
| Cc1ccc(C2=C(c3ccc([N+](=O)[O-])cc3)C(=O)OC2)cc1C | 35.5 µM [rising, single point] |  |
| O=[N+]([O-])c1ccc(F)cc1OCc1nc(-c2cccs2)no1 |  | 0.794 µM [rising, full curve, poor fit] |
| CN(C)c1nc(N)nc(/C(C#N)=C/C2CC3C=CC2C3)n1 (centres undefined) |  | 10 µM [rising, partial curve] |
| Cc1cc(N2CCC(C)CC2)n2nc(C)c(-c3ccccc3)c2n1 | 22.4 µM [rising, partial curve] | 20 µM [rising, partial curve] |
| CC(=O)c1cccc(NC(=O)NC2CCCc3ccccc32)c1 (centres undefined) |  | 0.0501 µM [rising, full curve, poor fit] |
| Cc1ccc(-c2csc(NC(=O)c3ccc(C)o3)n2)cc1 | 35.5 µM [rising, single point] | 35.5 µM [rising, single point] |
| CCOC(=O)/C(=N\Nc1ccccc1Cl)N1CCN(Cc2ccccc2)CC1 | 35.5 µM [rising, single point] |  |
| CCOC(=O)c1cc(-c2ccc(C)cc2)n(CCC(=O)N2CCN(c3ccccn3)CC2)c1C | 35.5 µM [rising, single point] | 35.5 µM [rising, single point] |
| CCc1nnc(N2CCN(c3ncnc4c3oc3ccccc34)CC2)s1 | 35.5 µM [rising, single point] |  |
| Cc1cc(C)c(OCC(=O)Nc2cccc(NC(=O)c3ccco3)c2)c(Br)c1 | 15.8 µM [rising, single point] |  |
